Measured values: publication PMC9867347 (Pharmaceuticals, 2022)

Experiment: general procedure: Fmoc solid-phase peptide synthesis; 2-chlorotritylchloride resin (1 g, 0.93 mmol/g, 1% DVB, 100-200 mesh); main text names Wang resin; HOBt/DIC; main text names HCTU/N,N-diisopropylethylamine
Details: for isolated yield: scale of the general procedure 1 g resin, loading capacity 0.93 mmol/g

Ac-Cys-Asp6-OH
isolated mass (whole synthesis): 218 mg
isolated yield (whole synthesis, run 1): 51%
isolated yield (whole synthesis, run 2): 80%

PEPTIDE1{[ac].C.D.D.D.D.D.D}|CHEM1{[AcacetinEMCH]}$PEPTIDE1,CHEM1,2:R3-1:R1$$$V2.0
conjugation yield (conjugation step): 71%

Strings that start with PEPTIDE1 are HELM notation: dots part the residues, brackets hold end groups and non-standard residues.
